Laboratory results: publication PMC4299769
No constants are given. Whether binding was seen depends on the method and setting.

By UniProt entry, the sequences of proteins in these tests, tags left out. Residues count along the entry.
UniProt A0A0B5JC15, residues 20-291: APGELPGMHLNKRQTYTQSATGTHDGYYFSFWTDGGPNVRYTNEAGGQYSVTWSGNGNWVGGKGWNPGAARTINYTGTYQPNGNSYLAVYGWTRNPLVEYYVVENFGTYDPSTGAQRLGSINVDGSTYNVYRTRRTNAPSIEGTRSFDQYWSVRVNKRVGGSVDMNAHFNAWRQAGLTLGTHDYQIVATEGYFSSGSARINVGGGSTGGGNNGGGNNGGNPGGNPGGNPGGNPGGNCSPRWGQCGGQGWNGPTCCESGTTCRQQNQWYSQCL

Molecular target: Recombinant Xyn11B (mature endo-1,4-β-xylanase of glycoside hydrolase family 11 from Humicola insolens Y1) (Humicola insolens Y1)
Experiment: SEC; purified recombinant Xyn11B; column and conditions not told; both purified

binding: no binding
Substance: Recombinant Xyn11B (mature endo-1,4-β-xylanase of glycoside hydrolase family 11 from Humicola insolens Y1) (from UniProt A0A0B5JC15 20-291) (enzyme)
